Reference: the supplement of paper PMC6078165

System: MDAMB231
Experiment: relative JC-1 red fluorescence (viability) vs pre-drug, coculture with fibroblast (fraction); higher = more viable cancer cells
Conditions: 10 µM
Protocol: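 JC-1 labelled TNBC cells cocultured 1:1 (1,500 cells each) with CellTrace Violet stained primary or stromal fibroblasts in 384-well plates in FluoroBrite medium, treated with one of 42 anticancer drugs at 0.1, 1, 10 or 100 uM. JC-1 red fluorescence (mitochondrial integrity in cancer cells only) was read by plate reader every 8 h for 72 h. Values are normalised to each well's pre-drug value. The stock of one drug was tenfold lower, so its dose labels may be too high.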

C#Cc1cccc(Nc2ncnc3cc(OCCOC)c(OCCOC)cc23)c1 [Erlotinib]
relative JC-1 red fluorescence
Conditions | 8 h | 16 h | 24 h | 32 h | 40 h | 48 h | 56 h | 64 h | 72 h
coculture fibroblast: C12385 | 0.7747 | 0.8017 | 0.6578 | 0.771 | 0.754 | 0.737 | 0.7136 | 0.708 | 0.702
coculture fibroblast: H6013 | 0.9024 | 0.882 | 0.857 | 0.869 | 0.85 | 0.824 | 0.853 | 0.837 | 0.824
coculture fibroblast: H6019 | 0.889 | 0.782 | 0.75 | 0.727 | 0.794 | 0.77 | 0.739 | 0.805 | 0.765
coculture fibroblast: H6076 | 0.938 | 0.922 | 0.907 | 0.908 | 0.91 | 0.891 | 0.8913 | 0.8796 | 0.8905
coculture fibroblast: H6231 | 0.948 | 0.981 | 0.937 | 0.904 | 0.876 | 0.868 | 0.808 | 0.794 | 0.755
coculture fibroblast: HADF | 0.918 | 0.9114 | 0.886 | 0.897 | 0.887 | 0.812 | 0.849 | 0.843 | 0.813
coculture fibroblast: HCFa | 0.939 | 0.941 | 0.951 | 0.962 | 0.922 | 0.813 | 0.901 | 0.869 | 0.819
coculture fibroblast: HCPF | 0.862 | 0.927 | 0.886 | 0.878 | 0.849 | 0.824 | 0.807 | 0.771 | 0.762
coculture fibroblast: HHSteC | 0.915 | 0.903 | 0.877 | 0.864 | 0.854 | 0.812 | 0.805 | 0.792 | 0.771
coculture fibroblast: HMF | 0.9787 | 0.9661 | 0.9394 | 0.93 | 0.917 | 0.896 | 0.88 | 0.857 | 0.853
coculture fibroblast: HPFa | 0.9724 | 0.9725 | 0.947 | 0.932 | 0.925 | 0.891 | 0.864 | 0.856 | 0.83
coculture fibroblast: HUF | 0.856 | 0.7891 | 0.802 | 0.746 | 0.709 | 0.696 | 0.662 | 0.665 | 0.652
coculture fibroblast: Hs5 | 0.957 | 0.926 | 0.913 | 0.898 | 0.874 | 0.833 | 0.808 | 0.7947 | 0.786
coculture fibroblast: Hs27A | 0.912 | 0.902 | 0.8723 | 0.853 | 0.82 | 0.709 | 0.767 | 0.757 | 0.718
coculture fibroblast: Hs343T | 0.929 | 0.913 | 0.886 | 0.883 | 0.866 | 0.857 | 0.833 | 0.821 | 0.813
coculture fibroblast: WS1 | 0.773 | 0.775 | 0.662 | 0.73 | 0.729 | 0.718 | 0.694 | 0.688 | 0.665

The reference is the same well before dosing, and untreated signal decays as well.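 Fibroblast labels denote human fibroblasts, mainly primary ones from uterus (C12385, HUF), lung (H6013), bone (Hs27A), adrenal (HADF) and skin (WS1), plus mammary HMF and breast cancer-associated Hs343T. Cancer cells are basal-like or mesenchymal-like triple-negative breast cancer lines. A hit is a response shift exceeding 3x replicate standard deviation. The tissue of the other fibroblasts is not given here.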
